Laboratory results from publication doi:10.1101/645689.
These are yes or no findings as the source states them, for the method shown. Binding seen in cells or lysates may run through a third protein. Some entries that bind do so weakly or less than the wild type. One block for each binder: values may come before it.

Assays:
[1] = molecular target: T1, OGDH, the E1 subunit of the α-ketoglutarate dehydrogenase complex, mouse (mouse (endogenous in DBA/2J liver)) (UniProt Q60597); assay: co-IP
T1 sequence: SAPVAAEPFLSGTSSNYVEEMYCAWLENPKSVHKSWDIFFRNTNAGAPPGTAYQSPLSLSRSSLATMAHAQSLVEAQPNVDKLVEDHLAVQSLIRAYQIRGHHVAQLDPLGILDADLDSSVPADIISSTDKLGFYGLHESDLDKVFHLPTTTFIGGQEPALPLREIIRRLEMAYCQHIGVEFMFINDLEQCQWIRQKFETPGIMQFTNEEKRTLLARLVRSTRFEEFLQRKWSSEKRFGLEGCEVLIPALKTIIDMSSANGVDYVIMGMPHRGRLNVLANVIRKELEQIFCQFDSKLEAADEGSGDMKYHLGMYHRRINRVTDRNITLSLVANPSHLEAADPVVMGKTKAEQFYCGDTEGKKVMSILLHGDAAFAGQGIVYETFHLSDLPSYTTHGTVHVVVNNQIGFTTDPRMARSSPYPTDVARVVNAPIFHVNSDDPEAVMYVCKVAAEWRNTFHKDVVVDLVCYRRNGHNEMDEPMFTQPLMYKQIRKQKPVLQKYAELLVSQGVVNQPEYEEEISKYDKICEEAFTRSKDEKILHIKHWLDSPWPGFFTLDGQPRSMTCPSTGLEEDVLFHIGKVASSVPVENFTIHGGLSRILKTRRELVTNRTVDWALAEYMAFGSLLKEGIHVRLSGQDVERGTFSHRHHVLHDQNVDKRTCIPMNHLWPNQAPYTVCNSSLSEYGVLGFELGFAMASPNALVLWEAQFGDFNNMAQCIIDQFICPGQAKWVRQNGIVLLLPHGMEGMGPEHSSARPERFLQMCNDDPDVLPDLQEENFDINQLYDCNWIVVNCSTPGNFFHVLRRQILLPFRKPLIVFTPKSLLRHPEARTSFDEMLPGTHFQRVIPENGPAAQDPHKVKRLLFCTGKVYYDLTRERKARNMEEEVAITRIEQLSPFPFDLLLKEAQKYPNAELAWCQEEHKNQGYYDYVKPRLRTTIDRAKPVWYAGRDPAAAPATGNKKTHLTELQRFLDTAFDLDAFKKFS

[2] = molecular target: T2, dihydrolipoyl succinyltransferase (DLST), E2 subunit, mouse (mouse (endogenous in DBA/2J liver)) (UniProt Q9D2G2); assay: co-IP
T2 sequence (chain, lipoic moiety (detected with an anti-lipoic acid antibody)): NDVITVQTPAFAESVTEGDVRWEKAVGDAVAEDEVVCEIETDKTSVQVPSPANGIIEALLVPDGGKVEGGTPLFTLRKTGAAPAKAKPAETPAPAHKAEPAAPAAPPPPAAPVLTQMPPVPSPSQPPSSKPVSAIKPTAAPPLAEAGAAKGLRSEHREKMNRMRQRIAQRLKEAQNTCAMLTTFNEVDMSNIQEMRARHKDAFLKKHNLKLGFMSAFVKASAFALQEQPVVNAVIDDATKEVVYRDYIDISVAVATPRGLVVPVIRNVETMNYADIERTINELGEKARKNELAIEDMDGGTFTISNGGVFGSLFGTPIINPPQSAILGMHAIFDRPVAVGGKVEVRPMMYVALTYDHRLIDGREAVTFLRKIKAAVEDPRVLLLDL

binding [1]: binds
B1: dihydrolipoyl succinyltransferase (DLST), E2 subunit, mouse (enzyme, UniProt Q9D2G2 69-454)
chain: T2 sequence (chain, lipoic moiety (detected with an anti-lipoic acid antibody))
modifications: lipoic moiety (detected with an anti-lipoic acid antibody)

binding [2]: binds
B2: OGDH, the E1 subunit of the α-ketoglutarate dehydrogenase complex, mouse (enzyme, UniProt Q60597 41-1023)
chain: T1 sequence

binding [1]: no binding
binding [2]: binds
B3: dihydrolipoyl dehydrogenase (DLD), E3 subunit, mouse (enzyme, UniProt O08749 36-509)
chain: ADQPIEADVTVIGSGPGGYVAAIKSAQLGFKTVCIEKNETLGGTCLNVGCIPSKALLNNSHYYHMAHGKDFASRGIEIPEVRLNLEKMMEQKHSAVKALTGGIAHLFKQNKVVHVNGFGKITGKNQVTATKADGSTQVIDTKNILVATGSEVTPFPGITIDEDTIVSSTGALSLKKVPEKLVVIGAGVIGVELGSVWQRLGADVTAVEFLGHVGGIGIDMEISKNFQRILQRQGFKFKLNTKVTGATKKSDGKIDVSVEAASGGKAEVITCDVLLVCIGRRPFTQNLGLEELGIELDPKGRIPVNNRFQTKIPNIYAIGDVVAGPMLAHKAEDEGIICVEGMAGGAVHIDYNCVPSVIYTHPEVAWVGKSEEQLKEEGIEFKIGKFPFAANSRAKTNADTDGMVKILGHKSTDRVLGAHILGPGAGEMVNEAALALEYGASCEDIARVCHAHPTLSEAFREANLAAAFGKPINF
